Reference: US20240374736A1, “INHALED LIQUID FOR THE TREATMENT OF RESPIRATORY INFECTIONS IN HUMANS CAUSED BY PATHOGENS RESISTANT TO ANTIBIOTICS” (priority 2023, published 2024)

Tests used:
Histoplasma capsulatum = type: cell-based

Q: With C=CCc1ccc(O)c(OC)c1.CCN(CC)CC(=O)Nc1c(C)cccc1C [novel compound, N-[N′-(carboxymethylenyl-2,6-dimethyl-aniline)-N,N-diethylammonium]-[2′-methoxy-4′-(2′-propenyl)]-phenolate] as the molecule, how does the “toxicity in the applied doses” value (mice; orally (p.o.)) read?
A: low toxic

Q: What about the “oral LD50” value (mice; p.o.) of the same molecule?
A: over 2,000 μL/kg

Q: And the “toxicity in the applied doses” value (rats; orally (p.o.))?
A: low toxic

Q: What about the “oral LD50” value (rats; p.o.) of the same molecule?
A: over 2,250 μL/kg

Q: What about the lethality (rats; p.o., doses up to 2,250 μL/kg) of the same molecule?
A: No rats ended lethally

Q: And the “R (evaluation of the results by zone diameter)” value (Histoplasma capsulatum)?
A: ES (key: 0 mm-4 mm: resistant: R; 5 mm-9 mm: moderately sensitive: MS; 10 mm-15 mm: sensitive: S; 16 mm-20 mm: very sensitive: VS; 21 mm and more: extremely sensitive: ES)
